The target of assay [1] is human BTLA (Uniprot Q7Z6A9) expressed on cells (human) (UniProt Q7Z6A9). Description: flow cytometry, His-mouse HVEM on Expi293-huBTLA cells, PE anti-His antibody, MFI. For orientation: A flow cytometer gives signals particle by particle.
The target is the same in assay [2]. Description: flow cytometry, His-mouse HVEM on Expi293-huBTLA cells, PE anti-His.

The chains behind the UniProt entries cited, without tags or fusion partners. Where a name states a change or a piece, a line headed by the entry shows the natural chain unless it says otherwise. Residues count along the entry.
UniProt Q7Z6A9, residues 31-289: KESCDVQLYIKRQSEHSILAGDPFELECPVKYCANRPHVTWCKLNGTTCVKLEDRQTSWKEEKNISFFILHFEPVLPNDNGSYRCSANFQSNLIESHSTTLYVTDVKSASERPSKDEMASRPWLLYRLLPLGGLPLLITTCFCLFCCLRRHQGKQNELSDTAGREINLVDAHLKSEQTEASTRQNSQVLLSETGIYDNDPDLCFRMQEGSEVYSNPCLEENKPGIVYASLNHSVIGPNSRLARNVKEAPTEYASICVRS
UniProt Q80WM9, residues 39-206: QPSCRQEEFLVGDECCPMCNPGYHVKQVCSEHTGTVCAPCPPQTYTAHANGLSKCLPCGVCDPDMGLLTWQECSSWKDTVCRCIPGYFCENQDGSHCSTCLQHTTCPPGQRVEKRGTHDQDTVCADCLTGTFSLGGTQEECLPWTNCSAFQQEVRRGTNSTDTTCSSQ

These are yes or no findings as the source states them, for the method shown. Some entries that bind do so weakly or less than the wild type.

For “His-mouse HVEM protein (Sino Biological, cat #10567-M03H) (from UniProt Q80WM9 39-206) (ligand)”, the binding entry in assay [1] and in assay [2] was “binds” throughout.

For the origin of these results see patent US20260035464A1.
